Source: publication PMC4132743 (Nucleic Acids Research, 2014)
The exact form of at least one protein or probe is not confirmed. For part of these data: The comparison behind a weaker result is the experiment's own reference, which may not be listed here. At least one verdict was read from the data and is not stated in words by the source. Protein sequences can lack the tags named with them.

Assays:
[1] = molecular target: T1, DnaT (wt, full length) (Escherichia coli K12) (UniProt P0A8J2); assay: EMSA; conditions: 20-160 uM protein, 6 uM DNA; Buffer A: 20 mM Tris-HCl pH 7.5, 40 mM NaCl, 5% v/v glycerol, 20 C; FPA 200 nM 5'-FAM DNA, Hill fit; EMSA 30 min at 20 C, gels in 0.5x TBE at 4 C; recombinant protein; residues 1-179; protein details: His-MBP removed by TEV; single-stranded DNA
T1 sequence (looked up): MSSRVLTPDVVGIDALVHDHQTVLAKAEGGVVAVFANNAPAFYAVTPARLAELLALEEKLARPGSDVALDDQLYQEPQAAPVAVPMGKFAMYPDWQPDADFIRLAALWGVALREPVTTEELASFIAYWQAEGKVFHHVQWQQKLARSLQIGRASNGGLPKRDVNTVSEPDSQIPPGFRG

[2] = molecular target: T2, DnaT84-179 (Escherichia coli K12) (UniProt P0A8J2); assay: EMSA; conditions: 20-160 uM protein, 6 uM DNA; Buffer A: 20 mM Tris-HCl pH 7.5, 40 mM NaCl, 5% v/v glycerol, 20 C; FPA 200 nM 5'-FAM DNA, Hill fit; EMSA 30 min at 20 C, gels in 0.5x TBE at 4 C; recombinant protein; residues 84-179; protein details: His-MBP removed by TEV; single-stranded DNA
T2 sequence (looked up): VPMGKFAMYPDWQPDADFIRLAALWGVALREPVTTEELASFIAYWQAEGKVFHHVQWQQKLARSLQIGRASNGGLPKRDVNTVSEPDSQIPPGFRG

[3] = molecular target: T1, DnaT (wt, full length) (Escherichia coli K12); assay: negative-stain EM; conditions: short filaments about 30 nm; Buffer A: 20 mM Tris-HCl pH 7.5, 40 mM NaCl, 5% v/v glycerol, 20 C; FPA 200 nM 5'-FAM DNA, Hill fit; recombinant protein; residues 1-179; protein details: His-MBP removed by TEV; single-stranded DNA

Sequence	binding result [1]	binding result [2]	binding result [3]
TTTTTTTTTTTTTTTTTTTTTTTTTTTTTT [dT30]	binds	binds more weakly	
TTTTTTTTTTTTTTTTTTTTTTTTTTTTTTTTTTTTTTTTTTTTTTTTTT [dT50]			binds
